No constants are given. Whether binding was seen depends on the method and setting. Binding seen in cells or lysates may run through a third protein. Here binding means that the protein was enriched with, or labelled near, the bait; the list need not be complete.
T1: mouse Nucleoredoxin Cys208Ser (mouse) (UniProt P97346)
T1 sequence: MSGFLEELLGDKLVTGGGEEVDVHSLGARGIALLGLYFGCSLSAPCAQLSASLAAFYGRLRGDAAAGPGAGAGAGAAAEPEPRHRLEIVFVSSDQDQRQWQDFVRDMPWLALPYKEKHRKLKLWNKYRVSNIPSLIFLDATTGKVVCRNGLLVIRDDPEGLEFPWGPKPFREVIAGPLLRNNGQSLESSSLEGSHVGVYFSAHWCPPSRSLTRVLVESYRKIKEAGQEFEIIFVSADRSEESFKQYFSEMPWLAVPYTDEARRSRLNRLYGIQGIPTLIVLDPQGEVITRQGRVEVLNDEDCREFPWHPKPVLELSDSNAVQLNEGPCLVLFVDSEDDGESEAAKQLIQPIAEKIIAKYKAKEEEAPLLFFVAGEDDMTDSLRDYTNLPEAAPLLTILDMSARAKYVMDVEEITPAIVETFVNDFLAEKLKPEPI

By UniProt entry, the sequences of proteins in these tests, tags left out.
UniProt P17174: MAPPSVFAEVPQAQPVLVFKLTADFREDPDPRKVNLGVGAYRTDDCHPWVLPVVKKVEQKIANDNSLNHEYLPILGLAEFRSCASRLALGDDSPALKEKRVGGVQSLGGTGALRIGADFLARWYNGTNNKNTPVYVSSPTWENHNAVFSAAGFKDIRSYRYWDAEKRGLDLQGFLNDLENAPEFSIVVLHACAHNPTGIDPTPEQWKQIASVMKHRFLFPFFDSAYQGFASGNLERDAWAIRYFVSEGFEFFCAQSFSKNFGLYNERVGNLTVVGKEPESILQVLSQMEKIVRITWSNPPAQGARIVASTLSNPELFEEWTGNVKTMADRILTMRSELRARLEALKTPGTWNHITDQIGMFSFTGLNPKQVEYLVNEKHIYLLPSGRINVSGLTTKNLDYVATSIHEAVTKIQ
UniProt Q07866: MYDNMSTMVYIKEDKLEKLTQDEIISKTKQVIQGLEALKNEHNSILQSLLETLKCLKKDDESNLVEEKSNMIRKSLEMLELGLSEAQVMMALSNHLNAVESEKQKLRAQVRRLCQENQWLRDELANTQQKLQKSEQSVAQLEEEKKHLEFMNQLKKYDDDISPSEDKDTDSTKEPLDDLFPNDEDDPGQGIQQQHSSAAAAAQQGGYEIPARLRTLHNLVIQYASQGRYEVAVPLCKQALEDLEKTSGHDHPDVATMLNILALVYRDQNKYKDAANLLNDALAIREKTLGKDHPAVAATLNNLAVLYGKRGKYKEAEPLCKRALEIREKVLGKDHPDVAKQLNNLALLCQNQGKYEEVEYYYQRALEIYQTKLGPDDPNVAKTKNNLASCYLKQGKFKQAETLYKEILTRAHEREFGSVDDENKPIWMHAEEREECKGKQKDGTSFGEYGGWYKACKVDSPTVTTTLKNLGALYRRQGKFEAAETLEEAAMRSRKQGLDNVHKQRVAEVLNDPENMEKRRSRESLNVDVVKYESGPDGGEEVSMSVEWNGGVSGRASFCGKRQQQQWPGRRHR
UniProt P61088: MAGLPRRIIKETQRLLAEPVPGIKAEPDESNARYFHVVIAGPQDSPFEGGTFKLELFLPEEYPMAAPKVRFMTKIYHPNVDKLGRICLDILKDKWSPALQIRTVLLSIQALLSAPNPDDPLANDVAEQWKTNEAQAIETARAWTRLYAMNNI
UniProt P63104: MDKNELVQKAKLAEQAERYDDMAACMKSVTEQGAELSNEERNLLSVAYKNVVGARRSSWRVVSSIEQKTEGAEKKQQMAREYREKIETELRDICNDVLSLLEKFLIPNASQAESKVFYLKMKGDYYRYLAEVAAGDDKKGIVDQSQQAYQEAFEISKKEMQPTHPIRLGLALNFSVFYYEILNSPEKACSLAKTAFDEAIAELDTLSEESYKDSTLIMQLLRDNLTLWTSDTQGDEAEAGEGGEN
UniProt P04406: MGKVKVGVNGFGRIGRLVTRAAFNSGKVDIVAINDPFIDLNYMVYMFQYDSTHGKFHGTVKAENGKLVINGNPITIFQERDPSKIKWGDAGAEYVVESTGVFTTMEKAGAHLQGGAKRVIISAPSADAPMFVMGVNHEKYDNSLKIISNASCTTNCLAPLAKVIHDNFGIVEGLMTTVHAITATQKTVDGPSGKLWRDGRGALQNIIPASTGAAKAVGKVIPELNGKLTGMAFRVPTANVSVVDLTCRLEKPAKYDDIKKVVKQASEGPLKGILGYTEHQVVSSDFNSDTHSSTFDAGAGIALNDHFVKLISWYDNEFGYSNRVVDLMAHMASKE
UniProt P23528: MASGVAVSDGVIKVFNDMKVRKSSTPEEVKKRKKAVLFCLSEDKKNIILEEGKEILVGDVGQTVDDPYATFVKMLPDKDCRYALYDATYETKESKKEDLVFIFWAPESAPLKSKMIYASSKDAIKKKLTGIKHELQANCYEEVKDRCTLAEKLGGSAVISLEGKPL
UniProt Q92769: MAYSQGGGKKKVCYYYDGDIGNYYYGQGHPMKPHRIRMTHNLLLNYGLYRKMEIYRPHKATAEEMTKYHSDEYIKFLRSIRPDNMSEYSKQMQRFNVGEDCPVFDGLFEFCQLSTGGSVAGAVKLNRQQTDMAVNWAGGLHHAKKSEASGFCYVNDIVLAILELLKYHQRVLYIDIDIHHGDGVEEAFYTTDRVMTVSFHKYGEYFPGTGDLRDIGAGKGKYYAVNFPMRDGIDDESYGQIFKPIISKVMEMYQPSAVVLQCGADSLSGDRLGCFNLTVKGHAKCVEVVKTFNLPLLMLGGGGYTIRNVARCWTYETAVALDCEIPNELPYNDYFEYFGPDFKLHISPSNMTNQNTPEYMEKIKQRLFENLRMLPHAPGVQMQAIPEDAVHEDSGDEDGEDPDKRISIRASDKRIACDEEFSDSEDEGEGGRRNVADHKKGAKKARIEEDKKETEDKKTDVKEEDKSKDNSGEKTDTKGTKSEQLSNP
UniProt P45974: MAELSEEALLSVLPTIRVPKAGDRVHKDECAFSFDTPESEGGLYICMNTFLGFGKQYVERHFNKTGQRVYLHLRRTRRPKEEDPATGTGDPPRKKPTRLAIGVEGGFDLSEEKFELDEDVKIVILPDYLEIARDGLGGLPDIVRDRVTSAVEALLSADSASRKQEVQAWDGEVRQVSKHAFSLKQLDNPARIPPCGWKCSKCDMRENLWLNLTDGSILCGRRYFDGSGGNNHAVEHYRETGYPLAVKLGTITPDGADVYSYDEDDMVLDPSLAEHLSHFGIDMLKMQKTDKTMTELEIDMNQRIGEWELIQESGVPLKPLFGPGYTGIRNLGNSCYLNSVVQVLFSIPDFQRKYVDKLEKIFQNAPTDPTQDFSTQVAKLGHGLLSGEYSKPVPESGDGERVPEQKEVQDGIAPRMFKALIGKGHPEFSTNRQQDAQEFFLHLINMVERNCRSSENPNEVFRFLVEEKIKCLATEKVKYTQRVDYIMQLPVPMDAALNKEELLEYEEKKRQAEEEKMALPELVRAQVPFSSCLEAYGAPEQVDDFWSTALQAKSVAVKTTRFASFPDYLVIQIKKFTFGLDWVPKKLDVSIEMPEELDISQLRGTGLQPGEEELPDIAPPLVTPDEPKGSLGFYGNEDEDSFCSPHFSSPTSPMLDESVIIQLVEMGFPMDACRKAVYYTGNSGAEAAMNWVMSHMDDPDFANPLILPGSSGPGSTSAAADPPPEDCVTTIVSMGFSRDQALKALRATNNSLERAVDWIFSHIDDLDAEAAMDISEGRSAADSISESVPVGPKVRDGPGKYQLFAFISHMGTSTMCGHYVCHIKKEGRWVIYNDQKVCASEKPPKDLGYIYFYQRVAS
UniProt P62873: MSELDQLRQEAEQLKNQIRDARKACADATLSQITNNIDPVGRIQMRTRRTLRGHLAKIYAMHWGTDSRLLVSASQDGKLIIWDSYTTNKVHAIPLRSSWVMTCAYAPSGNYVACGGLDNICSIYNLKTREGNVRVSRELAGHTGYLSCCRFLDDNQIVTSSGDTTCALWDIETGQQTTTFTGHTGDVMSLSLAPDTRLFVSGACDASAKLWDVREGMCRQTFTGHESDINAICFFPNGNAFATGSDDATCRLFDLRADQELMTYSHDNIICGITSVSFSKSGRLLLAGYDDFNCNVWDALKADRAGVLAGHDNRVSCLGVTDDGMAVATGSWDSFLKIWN
UniProt O94760: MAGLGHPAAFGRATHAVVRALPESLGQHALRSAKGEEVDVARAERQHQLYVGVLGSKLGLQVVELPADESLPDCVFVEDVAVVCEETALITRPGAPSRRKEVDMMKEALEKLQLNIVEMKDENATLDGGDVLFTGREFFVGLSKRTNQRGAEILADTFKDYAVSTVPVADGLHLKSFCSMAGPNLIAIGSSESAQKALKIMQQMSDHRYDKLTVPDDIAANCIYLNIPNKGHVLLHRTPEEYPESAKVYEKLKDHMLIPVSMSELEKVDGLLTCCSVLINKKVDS
UniProt P23526: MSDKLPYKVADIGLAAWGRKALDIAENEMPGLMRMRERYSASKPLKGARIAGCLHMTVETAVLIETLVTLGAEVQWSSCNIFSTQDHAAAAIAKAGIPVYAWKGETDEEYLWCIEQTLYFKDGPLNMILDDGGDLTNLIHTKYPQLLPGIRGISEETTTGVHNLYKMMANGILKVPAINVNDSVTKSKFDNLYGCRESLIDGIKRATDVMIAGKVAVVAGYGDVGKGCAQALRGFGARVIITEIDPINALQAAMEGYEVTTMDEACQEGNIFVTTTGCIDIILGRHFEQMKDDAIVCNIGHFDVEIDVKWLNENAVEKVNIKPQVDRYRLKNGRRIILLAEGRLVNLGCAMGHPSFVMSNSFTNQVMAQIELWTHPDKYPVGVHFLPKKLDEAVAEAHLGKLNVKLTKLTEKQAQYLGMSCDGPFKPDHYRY
UniProt P14618: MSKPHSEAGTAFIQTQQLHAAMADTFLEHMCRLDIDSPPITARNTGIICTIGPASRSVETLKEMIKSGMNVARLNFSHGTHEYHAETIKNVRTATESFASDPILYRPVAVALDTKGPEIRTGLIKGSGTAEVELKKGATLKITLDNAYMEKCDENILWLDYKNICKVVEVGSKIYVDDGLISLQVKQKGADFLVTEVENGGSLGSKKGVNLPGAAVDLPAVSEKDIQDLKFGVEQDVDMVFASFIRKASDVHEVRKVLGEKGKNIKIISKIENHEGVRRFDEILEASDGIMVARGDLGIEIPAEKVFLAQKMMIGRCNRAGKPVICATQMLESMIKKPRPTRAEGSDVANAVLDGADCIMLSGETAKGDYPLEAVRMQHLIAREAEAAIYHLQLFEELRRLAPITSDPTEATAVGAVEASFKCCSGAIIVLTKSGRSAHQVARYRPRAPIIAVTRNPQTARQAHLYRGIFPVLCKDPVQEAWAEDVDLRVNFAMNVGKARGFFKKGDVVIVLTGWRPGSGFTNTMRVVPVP
UniProt Q00610: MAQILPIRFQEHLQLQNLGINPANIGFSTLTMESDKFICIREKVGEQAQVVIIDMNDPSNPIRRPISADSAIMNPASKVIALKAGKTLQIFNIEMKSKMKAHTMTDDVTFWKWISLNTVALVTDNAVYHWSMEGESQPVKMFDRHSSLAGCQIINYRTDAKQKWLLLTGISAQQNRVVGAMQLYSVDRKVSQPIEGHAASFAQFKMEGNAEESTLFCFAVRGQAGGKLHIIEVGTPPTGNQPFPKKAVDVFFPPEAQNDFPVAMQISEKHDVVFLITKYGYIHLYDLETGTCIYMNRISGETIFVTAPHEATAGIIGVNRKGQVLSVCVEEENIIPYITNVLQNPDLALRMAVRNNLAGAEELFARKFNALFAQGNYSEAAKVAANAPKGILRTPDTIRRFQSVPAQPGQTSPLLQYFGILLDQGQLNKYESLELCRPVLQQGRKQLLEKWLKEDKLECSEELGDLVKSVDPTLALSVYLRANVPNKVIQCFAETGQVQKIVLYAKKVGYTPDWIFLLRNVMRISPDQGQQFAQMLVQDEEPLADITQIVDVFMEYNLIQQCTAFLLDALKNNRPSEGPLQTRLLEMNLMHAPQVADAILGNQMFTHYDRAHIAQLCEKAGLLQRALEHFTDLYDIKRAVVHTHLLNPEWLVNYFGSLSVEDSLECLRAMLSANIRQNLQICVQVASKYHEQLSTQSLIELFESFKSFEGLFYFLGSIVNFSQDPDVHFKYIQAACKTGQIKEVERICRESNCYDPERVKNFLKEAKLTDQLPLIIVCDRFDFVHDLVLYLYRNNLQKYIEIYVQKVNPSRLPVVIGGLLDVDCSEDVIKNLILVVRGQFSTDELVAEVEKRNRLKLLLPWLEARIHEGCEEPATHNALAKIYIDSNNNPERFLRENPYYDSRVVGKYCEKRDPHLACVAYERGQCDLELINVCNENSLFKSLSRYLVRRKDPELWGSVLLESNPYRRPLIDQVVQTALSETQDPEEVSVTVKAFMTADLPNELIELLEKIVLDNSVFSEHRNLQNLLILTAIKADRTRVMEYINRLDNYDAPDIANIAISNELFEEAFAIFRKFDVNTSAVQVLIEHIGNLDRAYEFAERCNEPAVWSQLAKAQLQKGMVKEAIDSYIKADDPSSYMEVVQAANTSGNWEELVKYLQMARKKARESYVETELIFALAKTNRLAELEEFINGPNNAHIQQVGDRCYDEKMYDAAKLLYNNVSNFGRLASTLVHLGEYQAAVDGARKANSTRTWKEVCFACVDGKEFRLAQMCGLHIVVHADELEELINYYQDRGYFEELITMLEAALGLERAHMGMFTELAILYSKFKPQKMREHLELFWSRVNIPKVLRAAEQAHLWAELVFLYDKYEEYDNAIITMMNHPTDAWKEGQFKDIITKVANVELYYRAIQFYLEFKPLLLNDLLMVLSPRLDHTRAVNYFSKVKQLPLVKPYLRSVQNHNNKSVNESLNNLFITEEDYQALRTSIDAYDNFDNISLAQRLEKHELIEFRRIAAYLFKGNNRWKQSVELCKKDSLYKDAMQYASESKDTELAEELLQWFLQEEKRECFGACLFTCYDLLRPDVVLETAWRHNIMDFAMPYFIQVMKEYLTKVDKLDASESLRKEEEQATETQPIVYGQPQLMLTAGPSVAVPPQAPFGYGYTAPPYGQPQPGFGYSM


Molecular target: T1, mouse Nucleoredoxin Cys208Ser (mouse)
Test: affinity purification with mass spectrometry; intermediate trapping: mNrx Cys208Ser coupled to CNBr-activated sepharose and reduced with 10 mM DTT; clarified SH-SY5Y lysate (NP40 lysis buffer) 2 h at 4°C; washed with 100 mM Tris, 300 mM NaCl, pH 8 and TE buffer; trapped proteins (mixed disulfide) eluted with 10 mM DTT and 10 mM TCEP; only the target purified

Row | Molecule | binding
1 | T-Complex protein 1 subunit theta (from UniProt P50990 1-548) | binds
2 | Aspartate aminotransferase, cytoplasmic (from UniProt P17174 1-413) | binds
3 | Kinesin light chain 1 (from UniProt Q07866 1-573) | binds
4 | Ubiquitin-conjugating enzyme E2 N (from UniProt P61088 1-152) | binds
5 | 14-3-3 protein zeta/delta (protein kinase C inhibitor protein 1) (from UniProt P63104 1-245) | binds
6 | Glyceraldehyde-3-phosphate dehydrogenase (from UniProt P04406 1-335) | binds
7 | Tubulin beta-2B chain (from UniProt Q9BVA1 1-445) | binds
8 | Elongation factor 1-gamma (from UniProt P26641 1-437) | binds
9 | Cofilin-1 (from UniProt P23528 1-166) | binds
10 | Histone deacetylase 2 (from UniProt Q92769 1-488) | binds
11 | Ubiquitin carboxyl-terminal hydrolase 5 (from UniProt P45974 1-858) | binds
12 | Guanine nucleotide-binding protein (from UniProt P62873 1-340) | binds
13 | Inosine-5′-monophosphate dehydrogenase 2 (from UniProt P12268 1-514) | binds
14 | Aspartate aminotransferase, mitochondrial (protein, UniProt P00505 30-430) SSWWTHVEMGPPDPILGVTEAFKRDTNSKKMNLGVGAYRDDNGKPYVLPSVRKAEAQIAAKNLDKEYLPIGGLAEFCKASAELALGENSEVLKSGRFVTVQTISGTGALRIGASFLQRFFKFSRDVFLPKPTWGNHTPIFRDAGMQLQGYRYYDPKTCGFDFTGAVEDISKIPEQSVLLLHACAHNPTGVDPRPEQWKEIATVVKKRNLFAFFDMAYQGFASGDGDKDAWAVRHFIEQGINVCLCQSYAKNMGLYGERVGAFTMVCKDADEAKRVESQLKILIRPMYSNPPLNGARIAAAILNTPDLRKQWLQEVKVMADRIIGMRTQLVSNLKKEGSTHNWQHITDQIGMFCFTGLKPEQVERLIKEFSIYMTKDGRISVAGVTSSNVGYLAHAIHQVTK | binds

Results, then the molecule that gave them:

Row | binding | Molecule
15 | binds | N(G),N(G)-Dimethylarginine dimethylaminohydrolase 1 (from UniProt O94760 1-285)
16 | binds | Adenosylhomocysteinase (from UniProt P23526 1-432)
17 | binds | Cytosol aminopeptidase (from UniProt P28838 1-519)
18 | binds | Pyruvate kinase (from UniProt P14618 1-531)
19 | binds | Heat shock protein HSP 90-alpha (from UniProt P07900 1-732)
20 | binds | Gamma-enolase (from UniProt P09104 1-434)
21 | binds | Filamin-A (from UniProt P21333 1-2647)
22 | binds | Clathrin heavy chain 1 (from UniProt Q00610 1-1675)
23 | binds | 3-Hydroxyacyl-CoA dehydrogenase type-2 (protein, UniProt Q99714 1-261) MAAACRSVKGLVAVITGGASGLGLATAERLVGQGASAVLLDLPNSGGEAQAKKLGNNCVFAPADVTSEKDVQTALALAKGKFGRVDVAVNCAGIAVASKTYNLKKGQTHTLEDFQRVLDVNLMGTFNVIRLVAGEMGQNEPDQGGQRGVIINTASVAAFEGQVGQAAYSASKGGIVGMTLPIARDLAPIGIRVMTIAPGLFGTPLLTSLPEKVCNFLASQVPFPSRLGDPAEYAHLVQAIIENPFLNGEVIRLDGAIRMQP

Source: article PMC6280245
